In patent US20070231273A1, “Method for Decreasing Blood Glucose Levels” (priority 2006, published 2007):
At least one compound was matched to its structure with a doubt left.

Tested on: rat pancreatic β-cells
Experiment: Nystatin-perforation whole-cell recording in current-clamp mode (membrane potential)
Type: cell-based
Details: 10 μM
Experimental: Pancreatic β-cell isolation. Isolation of rat islets was performed as previously described. In short, male adult rats (Wistar) were anesthetized with diethyl ether, and 10 ml of Hank's buffered saline (HBSS) containing collagenase (200 U/ml, Wako Chem., Japan) was injected into the common bile duct. The pancreas, swollen with digestion solution, was quickly excised and incubated in a plastic culture bottle for 20 min at 37° C. The suspension obtained by shaking the bottle was filtered through 0.5 mm metal mesh and washed with HBSS, which included 2% bovine serum albumin (BSA). […] After washing with HBSS, which contained 2% BSA, islets were cultured for 24 h with 5% CO2 in the tissue culture medium. Separation of islets was carried out using dispase (1000 U/ml, Godo Shusei, Japan) as previously described. Separated cells were again cultured for 1-4 days. […] Patch-clamp recordings. Cultured β-cells were kept in a 35-mm Petri dish, and the dish was placed on the stage of an inverted microscope (IMT-2, Olympus, Tokyo, Japan). Membrane potentials and membrane currents were measured using a patch-clamp amplifier (EPC-7, List Electronic, Darmstadt, Germany). […] Data of single channel currents were low-pass filtered at 1 KHz, digitized at 10 KHz and analyzed using a single channel current analysis program (Clampfit 9.2, Axon Instruments, Foster City, Calif.). […]

In the case of `COC(=O)C1=C(C)NC(C)=C(C(=O)OC)C1c1ccccc1[N+](=O)[O-]` [nifedipine, reference compound], the “effect on action potential firing” value is reported as “abolished action potential firing”.
